Results are given in words; binding and its absence hold for the method and conditions named. Binding seen in cells or lysates may run through a third protein. Some results given as binding are weak or reduced against the parent protein; the word gives no strength.

Chains of the proteins cited; added tags and fusions are not shown.
UniProt O60318: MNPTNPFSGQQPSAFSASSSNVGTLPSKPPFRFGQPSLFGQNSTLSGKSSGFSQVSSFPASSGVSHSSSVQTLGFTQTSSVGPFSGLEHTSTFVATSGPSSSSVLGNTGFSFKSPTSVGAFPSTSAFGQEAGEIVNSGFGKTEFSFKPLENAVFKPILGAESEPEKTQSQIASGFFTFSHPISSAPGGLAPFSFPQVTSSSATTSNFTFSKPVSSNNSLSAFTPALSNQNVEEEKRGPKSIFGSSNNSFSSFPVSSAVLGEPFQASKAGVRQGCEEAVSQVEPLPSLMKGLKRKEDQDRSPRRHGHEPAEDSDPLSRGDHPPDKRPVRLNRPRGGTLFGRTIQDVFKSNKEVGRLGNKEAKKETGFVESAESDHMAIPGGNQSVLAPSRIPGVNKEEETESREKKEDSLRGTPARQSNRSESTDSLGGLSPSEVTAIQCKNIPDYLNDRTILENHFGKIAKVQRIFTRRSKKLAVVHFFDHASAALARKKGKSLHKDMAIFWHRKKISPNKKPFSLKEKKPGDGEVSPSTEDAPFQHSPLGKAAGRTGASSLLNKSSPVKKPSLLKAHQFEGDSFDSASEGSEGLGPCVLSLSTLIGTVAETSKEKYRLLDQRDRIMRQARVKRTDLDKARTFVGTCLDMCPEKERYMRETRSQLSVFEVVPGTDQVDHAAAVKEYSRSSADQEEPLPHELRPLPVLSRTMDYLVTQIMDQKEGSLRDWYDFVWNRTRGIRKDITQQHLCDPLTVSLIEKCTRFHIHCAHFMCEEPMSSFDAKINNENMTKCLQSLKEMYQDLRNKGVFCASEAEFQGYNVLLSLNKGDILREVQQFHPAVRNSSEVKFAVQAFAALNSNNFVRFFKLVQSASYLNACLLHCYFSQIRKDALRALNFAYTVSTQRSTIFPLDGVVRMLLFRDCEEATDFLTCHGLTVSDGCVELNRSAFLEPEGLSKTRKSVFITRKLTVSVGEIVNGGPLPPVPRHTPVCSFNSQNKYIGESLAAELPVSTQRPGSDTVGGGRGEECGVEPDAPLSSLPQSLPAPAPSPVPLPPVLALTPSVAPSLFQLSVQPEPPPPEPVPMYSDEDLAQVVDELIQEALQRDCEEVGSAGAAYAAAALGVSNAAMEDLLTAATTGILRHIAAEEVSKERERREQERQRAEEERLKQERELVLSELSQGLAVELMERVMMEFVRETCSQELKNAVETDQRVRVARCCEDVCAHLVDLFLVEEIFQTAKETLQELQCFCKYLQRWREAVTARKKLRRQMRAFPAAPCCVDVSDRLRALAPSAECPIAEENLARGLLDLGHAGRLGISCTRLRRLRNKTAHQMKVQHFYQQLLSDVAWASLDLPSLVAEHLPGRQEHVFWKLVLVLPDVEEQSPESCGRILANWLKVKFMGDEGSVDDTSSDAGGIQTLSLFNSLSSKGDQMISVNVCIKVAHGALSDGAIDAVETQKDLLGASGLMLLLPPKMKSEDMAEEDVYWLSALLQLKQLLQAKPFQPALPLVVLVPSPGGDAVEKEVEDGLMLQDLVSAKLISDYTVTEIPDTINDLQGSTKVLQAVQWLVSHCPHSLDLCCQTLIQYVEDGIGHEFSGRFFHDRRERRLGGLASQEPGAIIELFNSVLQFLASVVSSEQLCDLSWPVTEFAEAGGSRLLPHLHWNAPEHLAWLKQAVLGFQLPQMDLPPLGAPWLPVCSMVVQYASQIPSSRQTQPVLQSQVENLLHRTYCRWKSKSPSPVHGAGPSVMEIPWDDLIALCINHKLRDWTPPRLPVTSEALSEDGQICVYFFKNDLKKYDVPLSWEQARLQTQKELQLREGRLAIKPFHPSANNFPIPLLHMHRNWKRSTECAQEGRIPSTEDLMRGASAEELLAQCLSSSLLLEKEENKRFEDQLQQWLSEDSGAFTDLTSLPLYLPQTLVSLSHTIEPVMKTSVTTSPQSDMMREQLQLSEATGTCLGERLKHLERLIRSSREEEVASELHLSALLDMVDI
UniProt Q5JVF3: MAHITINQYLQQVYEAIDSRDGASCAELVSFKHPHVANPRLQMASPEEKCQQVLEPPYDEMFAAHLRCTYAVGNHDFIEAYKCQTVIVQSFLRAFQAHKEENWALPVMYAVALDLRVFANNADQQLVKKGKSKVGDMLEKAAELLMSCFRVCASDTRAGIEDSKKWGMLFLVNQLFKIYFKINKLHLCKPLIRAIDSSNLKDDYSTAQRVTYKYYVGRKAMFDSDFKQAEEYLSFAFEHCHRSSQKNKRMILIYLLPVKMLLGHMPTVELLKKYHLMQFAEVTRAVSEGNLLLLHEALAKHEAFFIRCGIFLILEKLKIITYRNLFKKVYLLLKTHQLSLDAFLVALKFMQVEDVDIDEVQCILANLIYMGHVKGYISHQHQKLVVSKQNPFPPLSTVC

Experiment [1] concerns the target T1, Orc3 subunit of human ORC (human (endogenous in HEK293T; also A375)) (UniProt Q9UBD5).
T1 sequence: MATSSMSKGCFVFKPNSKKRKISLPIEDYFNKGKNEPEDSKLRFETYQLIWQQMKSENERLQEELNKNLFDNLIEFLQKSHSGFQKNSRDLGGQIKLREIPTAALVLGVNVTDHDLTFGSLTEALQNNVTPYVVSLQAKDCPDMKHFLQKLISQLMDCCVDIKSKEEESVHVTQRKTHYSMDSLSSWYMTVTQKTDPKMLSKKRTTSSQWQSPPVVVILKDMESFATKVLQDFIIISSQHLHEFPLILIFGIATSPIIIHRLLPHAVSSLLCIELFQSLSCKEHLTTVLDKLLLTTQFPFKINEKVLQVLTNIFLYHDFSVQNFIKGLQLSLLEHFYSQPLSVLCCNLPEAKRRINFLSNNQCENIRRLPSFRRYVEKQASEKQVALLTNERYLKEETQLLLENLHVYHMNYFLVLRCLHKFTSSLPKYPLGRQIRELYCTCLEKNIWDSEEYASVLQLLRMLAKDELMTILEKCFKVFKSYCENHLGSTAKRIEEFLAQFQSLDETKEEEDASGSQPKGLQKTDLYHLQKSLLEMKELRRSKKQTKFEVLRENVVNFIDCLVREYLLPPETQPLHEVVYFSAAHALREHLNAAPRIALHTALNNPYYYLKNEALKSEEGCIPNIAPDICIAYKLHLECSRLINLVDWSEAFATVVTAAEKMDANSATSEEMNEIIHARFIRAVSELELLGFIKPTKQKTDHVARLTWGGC
As to the kind of experiment: co-IP; endogenous proteins precipitated from total HEK293T lysates with affinity-purified rabbit polyclonal antibodies to GANP, PCID2, Orc3 or Orc4, Western blot; lysates treated with DNase I and RNase A; phosphatase inhibitors added. (A western blot detects proteins with antibodies after separation by electrophoresis.)

Experiment [2] has as its target T2, Orc4 subunit of human ORC (human (endogenous in HEK293T; also A375)) (UniProt O43929).
T2 sequence: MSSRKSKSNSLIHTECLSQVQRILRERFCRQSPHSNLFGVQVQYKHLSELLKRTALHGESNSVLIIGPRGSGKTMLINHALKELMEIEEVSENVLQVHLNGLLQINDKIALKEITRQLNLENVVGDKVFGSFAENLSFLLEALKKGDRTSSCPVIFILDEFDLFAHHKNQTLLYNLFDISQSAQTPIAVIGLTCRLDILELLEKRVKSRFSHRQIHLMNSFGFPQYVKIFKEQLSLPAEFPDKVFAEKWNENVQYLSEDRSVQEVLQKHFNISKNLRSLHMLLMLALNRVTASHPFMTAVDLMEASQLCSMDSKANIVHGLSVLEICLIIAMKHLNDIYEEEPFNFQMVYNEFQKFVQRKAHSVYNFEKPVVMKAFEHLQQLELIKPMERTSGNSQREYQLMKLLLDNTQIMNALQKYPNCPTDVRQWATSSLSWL
The experiment is described as above.

Experiment [3] concerns the target GANP protein, full-length (subunit of human TREX-2, Xmas-2 homologue) (human (endogenous in HEK293T; also A375)) (UniProt O60318). As to the kind of experiment: co-IP; immunocoprecipitation from human A375 cell lysates under similar conditions; no figure given.
Experiment [4] deals with PCID2, major low-molecular weight form of approximately 41 kDa (subunit of human TREX-2) (human (endogenous in HEK293T; also A375)) (UniProt Q5JVF3). The experiment is described as above.
Experiment [5] deals with GANP protein, full-length (subunit of human TREX-2, Xmas-2 homologue) (human (endogenous in HEK293T; also A375)) (UniProt O60318). As to the kind of experiment: co-IP; endogenous proteins precipitated from total HEK293T lysates with affinity-purified rabbit polyclonal antibodies to GANP, PCID2, Orc3 or Orc4, Western blot; lysates treated with DNase I and RNase A; phosphatase inhibitors added.

Experiment [6] deals with PCID2, major low-molecular weight form of approximately 41 kDa (subunit of human TREX-2) (human (endogenous in HEK293T; also A375)) (UniProt Q5JVF3). The experiment is described as above.

Consider “GANP protein, full-length (subunit of human TREX-2, Xmas-2 homologue) (from UniProt O60318 1-1980)”, for which the binding result in experiment [1] and in experiment [2] was “binds” throughout.

As for “PCID2, major low-molecular weight form of approximately 41 kDa (subunit of human TREX-2) (from UniProt Q5JVF3 1-399)”, the binding entry in experiment [1] and in experiment [2] was “binds” throughout.

B1: Orc3 subunit of human ORC (protein, UniProt Q9UBD5 1-711)
chain: MATSSMSKGCFVFKPNSKKRKISLPIEDYFNKGKNEPEDSKLRFETYQLIWQQMKSENERLQEELNKNLFDNLIEFLQKSHSGFQKNSRDLGGQIKLREIPTAALVLGVNVTDHDLTFGSLTEALQNNVTPYVVSLQAKDCPDMKHFLQKLISQLMDCCVDIKSKEEESVHVTQRKTHYSMDSLSSWYMTVTQKTDPKMLSKKRTTSSQWQSPPVVVILKDMESFATKVLQDFIIISSQHLHEFPLILIFGIATSPIIIHRLLPHAVSSLLCIELFQSLSCKEHLTTVLDKLLLTTQFPFKINEKVLQVLTNIFLYHDFSVQNFIKGLQLSLLEHFYSQPLSVLCCNLPEAKRRINFLSNNQCENIRRLPSFRRYVEKQASEKQVALLTNERYLKEETQLLLENLHVYHMNYFLVLRCLHKFTSSLPKYPLGRQIRELYCTCLEKNIWDSEEYASVLQLLRMLAKDELMTILEKCFKVFKSYCENHLGSTAKRIEEFLAQFQSLDETKEEEDASGSQPKGLQKTDLYHLQKSLLEMKELRRSKKQTKFEVLRENVVNFIDCLVREYLLPPETQPLHEVVYFSAAHALREHLNAAPRIALHTALNNPYYYLKNEALKSEEGCIPNIAPDICIAYKLHLECSRLINLVDWSEAFATVVTAAEKMDANSATSEEMNEIIHARFIRAVSELELLGFIKPTKQKTDHVARLTWGGC
Regarding B1, the binding result in experiment [3], in experiment [4], in experiment [5] and in experiment [6] was “binds” in each case.

For the origin of these results see publication PMC10810029.
